Data from the supplement of paper PMC10849652.
The other results are listed elsewhere or left out.

Sequences of proteins named here, by UniProt entry; tags and fusion partners are left off. A change or cut given only in a name is not applied to a line headed by its entry.
UniProt Q9HB71, whole entry, looked up: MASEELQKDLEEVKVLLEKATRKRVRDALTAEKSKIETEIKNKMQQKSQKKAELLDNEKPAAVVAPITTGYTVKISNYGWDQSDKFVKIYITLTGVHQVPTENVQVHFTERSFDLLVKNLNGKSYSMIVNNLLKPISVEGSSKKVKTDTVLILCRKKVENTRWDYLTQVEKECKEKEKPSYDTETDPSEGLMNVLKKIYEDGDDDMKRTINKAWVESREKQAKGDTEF
UniProt O43709: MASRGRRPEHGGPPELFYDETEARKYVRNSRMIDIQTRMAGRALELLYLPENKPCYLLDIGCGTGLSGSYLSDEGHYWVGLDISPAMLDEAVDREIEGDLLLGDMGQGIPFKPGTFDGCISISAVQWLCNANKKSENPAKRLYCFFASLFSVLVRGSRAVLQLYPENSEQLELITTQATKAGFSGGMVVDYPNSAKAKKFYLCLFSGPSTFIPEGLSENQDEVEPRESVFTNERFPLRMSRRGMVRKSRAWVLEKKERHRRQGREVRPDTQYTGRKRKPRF
UniProt P17655: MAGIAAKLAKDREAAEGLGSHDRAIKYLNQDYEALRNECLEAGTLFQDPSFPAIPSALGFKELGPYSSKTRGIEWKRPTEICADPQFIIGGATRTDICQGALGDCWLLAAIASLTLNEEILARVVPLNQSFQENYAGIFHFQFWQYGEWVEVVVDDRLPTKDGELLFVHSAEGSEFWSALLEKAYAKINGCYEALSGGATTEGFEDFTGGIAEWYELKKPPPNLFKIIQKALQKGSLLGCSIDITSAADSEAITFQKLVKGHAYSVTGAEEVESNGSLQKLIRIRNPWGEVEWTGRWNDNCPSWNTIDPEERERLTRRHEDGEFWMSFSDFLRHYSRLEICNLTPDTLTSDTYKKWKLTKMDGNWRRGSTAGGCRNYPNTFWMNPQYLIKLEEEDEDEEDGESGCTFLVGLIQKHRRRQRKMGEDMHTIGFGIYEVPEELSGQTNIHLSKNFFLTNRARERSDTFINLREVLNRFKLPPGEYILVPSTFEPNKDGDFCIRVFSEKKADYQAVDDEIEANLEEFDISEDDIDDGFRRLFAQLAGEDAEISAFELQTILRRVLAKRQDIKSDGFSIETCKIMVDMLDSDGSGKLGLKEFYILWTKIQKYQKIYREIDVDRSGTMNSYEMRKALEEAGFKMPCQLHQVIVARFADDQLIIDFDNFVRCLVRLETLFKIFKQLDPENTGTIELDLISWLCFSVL
UniProt P27824: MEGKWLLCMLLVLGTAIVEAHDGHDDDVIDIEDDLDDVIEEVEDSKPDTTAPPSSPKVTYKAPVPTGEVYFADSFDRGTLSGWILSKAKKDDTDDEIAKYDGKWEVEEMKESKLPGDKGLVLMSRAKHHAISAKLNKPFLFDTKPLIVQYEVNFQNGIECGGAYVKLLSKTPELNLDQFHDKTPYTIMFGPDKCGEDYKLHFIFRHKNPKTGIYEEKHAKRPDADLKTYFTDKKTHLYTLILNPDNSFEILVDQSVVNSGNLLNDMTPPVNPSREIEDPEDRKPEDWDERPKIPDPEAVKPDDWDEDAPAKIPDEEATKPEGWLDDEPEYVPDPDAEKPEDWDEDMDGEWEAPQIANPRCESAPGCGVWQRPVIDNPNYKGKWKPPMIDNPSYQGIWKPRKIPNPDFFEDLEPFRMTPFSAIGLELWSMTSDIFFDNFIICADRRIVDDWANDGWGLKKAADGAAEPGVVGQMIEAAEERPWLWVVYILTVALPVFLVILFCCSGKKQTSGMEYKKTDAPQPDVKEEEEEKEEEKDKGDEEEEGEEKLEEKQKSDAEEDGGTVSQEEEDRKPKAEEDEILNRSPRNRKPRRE
UniProt Q14444, whole entry, looked up: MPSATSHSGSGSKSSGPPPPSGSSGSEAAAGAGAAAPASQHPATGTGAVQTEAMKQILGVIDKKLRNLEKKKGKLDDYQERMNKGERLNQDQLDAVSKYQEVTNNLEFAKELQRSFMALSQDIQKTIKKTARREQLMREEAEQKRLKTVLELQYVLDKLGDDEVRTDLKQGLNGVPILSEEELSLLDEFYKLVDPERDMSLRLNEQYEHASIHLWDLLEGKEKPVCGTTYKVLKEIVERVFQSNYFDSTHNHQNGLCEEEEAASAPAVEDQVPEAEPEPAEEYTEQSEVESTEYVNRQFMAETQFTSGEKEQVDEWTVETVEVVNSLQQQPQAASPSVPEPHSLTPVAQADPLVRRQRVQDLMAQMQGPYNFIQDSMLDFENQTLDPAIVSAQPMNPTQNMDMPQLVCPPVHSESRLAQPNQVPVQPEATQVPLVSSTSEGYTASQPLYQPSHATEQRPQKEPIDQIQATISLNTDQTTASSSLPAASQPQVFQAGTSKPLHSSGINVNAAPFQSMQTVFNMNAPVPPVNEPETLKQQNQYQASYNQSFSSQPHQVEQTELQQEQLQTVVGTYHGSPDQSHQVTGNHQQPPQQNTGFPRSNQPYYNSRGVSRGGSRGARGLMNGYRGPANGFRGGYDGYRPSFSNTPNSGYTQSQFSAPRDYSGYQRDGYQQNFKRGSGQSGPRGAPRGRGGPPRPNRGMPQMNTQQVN
UniProt Q9HAS0: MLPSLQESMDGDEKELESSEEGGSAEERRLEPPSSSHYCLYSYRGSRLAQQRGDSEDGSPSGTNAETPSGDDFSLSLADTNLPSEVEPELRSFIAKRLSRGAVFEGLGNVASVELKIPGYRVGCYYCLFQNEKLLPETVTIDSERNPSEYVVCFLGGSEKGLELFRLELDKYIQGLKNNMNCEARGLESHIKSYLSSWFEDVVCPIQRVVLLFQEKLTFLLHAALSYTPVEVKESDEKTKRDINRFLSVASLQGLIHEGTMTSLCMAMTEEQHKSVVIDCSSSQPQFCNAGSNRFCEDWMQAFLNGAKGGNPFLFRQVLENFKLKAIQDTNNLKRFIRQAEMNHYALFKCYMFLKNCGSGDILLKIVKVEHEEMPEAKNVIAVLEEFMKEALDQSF
UniProt Q8WUR7: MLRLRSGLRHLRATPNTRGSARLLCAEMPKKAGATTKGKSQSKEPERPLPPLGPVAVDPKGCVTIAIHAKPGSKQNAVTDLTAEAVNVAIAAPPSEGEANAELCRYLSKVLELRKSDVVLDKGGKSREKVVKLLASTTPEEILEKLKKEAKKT
UniProt Q6ZSJ8: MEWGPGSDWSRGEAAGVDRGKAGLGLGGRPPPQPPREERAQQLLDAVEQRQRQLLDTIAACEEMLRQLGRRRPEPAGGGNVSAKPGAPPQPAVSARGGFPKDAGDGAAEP
UniProt Q8IYL3: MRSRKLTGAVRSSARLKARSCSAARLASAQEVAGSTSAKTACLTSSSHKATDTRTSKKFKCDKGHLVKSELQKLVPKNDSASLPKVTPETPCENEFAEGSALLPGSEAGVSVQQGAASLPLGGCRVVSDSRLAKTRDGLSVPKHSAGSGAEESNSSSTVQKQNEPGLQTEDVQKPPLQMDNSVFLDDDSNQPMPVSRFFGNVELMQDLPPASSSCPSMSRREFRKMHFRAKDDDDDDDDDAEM
UniProt Q9Y6W3: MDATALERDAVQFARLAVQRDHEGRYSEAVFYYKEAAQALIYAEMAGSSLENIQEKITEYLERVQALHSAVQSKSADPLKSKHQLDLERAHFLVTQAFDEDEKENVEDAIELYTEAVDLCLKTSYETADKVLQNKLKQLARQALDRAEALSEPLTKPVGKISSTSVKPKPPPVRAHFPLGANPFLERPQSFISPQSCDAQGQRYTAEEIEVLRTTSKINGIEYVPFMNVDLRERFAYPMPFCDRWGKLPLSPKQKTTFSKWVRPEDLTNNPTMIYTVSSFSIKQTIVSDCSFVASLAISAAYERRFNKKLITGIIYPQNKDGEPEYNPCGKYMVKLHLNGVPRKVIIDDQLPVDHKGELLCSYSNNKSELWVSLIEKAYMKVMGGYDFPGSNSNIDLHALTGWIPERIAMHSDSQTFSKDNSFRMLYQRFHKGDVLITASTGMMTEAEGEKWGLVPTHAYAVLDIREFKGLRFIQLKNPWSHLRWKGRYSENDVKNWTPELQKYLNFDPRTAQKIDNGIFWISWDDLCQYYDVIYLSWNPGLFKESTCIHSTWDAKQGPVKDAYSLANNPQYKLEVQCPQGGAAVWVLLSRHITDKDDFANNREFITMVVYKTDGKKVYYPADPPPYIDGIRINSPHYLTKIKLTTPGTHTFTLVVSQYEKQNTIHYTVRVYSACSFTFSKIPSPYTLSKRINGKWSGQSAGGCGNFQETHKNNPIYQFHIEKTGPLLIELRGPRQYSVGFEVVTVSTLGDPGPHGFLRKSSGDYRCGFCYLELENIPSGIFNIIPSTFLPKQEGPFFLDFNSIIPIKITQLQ
UniProt Q96EU7: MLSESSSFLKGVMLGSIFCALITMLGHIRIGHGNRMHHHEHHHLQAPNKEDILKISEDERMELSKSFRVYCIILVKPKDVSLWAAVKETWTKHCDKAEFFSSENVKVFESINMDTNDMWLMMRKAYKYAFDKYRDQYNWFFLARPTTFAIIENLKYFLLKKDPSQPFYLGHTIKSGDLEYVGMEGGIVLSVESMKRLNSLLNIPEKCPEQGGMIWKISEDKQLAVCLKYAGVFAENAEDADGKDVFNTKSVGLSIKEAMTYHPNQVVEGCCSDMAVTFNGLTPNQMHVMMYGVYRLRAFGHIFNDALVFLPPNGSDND
UniProt O43684, whole entry, looked up: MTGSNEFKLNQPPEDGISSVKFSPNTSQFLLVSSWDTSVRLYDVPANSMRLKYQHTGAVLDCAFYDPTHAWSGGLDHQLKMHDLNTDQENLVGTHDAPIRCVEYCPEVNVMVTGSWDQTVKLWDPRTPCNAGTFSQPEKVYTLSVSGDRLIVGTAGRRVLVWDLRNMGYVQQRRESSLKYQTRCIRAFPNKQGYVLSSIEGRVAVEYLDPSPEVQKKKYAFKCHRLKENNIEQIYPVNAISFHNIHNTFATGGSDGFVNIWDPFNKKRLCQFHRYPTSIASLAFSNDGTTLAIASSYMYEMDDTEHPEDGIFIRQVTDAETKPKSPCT

How the values were obtained:
Experiment in all cases: log2 fold change, soluble protein after heating vs DMSO (PISA); higher = thermal stabilisation; K562 cells, 10 uM, 30 min; active = over 0.2 and 3.5 SD of the protein, either way, in both replicates (recomputed)
[1] = compound: CS(=O)(=O)c1ccc(-c2cnc(N)c(C(=O)Nc3ccccc3)n2)cc1
Method in brief: (§1)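 For each measurement, 10 μM compound was applied for 30 min to K562 cells at 2×10^6 cells/mL. Aliquots were heated for 3 min across 48°C-58°C, pooled, and extracted in PBS with 0.5% NP-40 at 4°C; the supernatant after 21,000xg for 90 min was soluble protein. This was quantified by TMTpro 16plex LC-MS/MS with channel sums equalised, and thermal stability was reported relative to control samples from duplicates, on a log2 fold-change scale.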

crizotinib = compound: C[C@@H](Oc1cc(-c2cnn(C3CCNCC3)c2)cnc1N)c1c(Cl)ccc(F)c1Cl [crizotinib]
Method in brief: as §1

[2] = compound: C[C@@H]1COCCN1C2=NC(=NC(=C2)C3(CC3)S(=O)(=O)C)C4=C5C=CNC5=CC=C4
Method in brief: as §1

[3] = compound: C[C@H](C1=CC=C(C=C1)C(=O)NC2=C3C=CNC3=NC=C2)N
Method in brief: as §1

duvelisib = compound: C[C@H](Nc1ncnc2nc[nH]c12)c1cc2cccc(Cl)c2c(=O)n1-c1ccccc1 [duvelisib]
Method in brief: as §1

gandotinib = compound: Cc1cc(Nc2cc(CN3CCOCC3)c3nc(C)c(Cc4ccc(Cl)cc4F)n3n2)n[nH]1 [gandotinib]
Method in brief: as §1

tozasertib = compound: Cc1cc(Nc2cc(N3CCN(C)CC3)nc(Sc3ccc(NC(=O)C4CC4)cc3)n2)n[nH]1 [tozasertib]
Method in brief: as §1

[4] = compound: Cc1cc(SCc2sc(-c3ccc(C(F)(F)F)cc3)nc2C)ccc1OCC(=O)O
Method in brief: as §1

doramapimod = compound: Cc1ccc(-n2nc(C(C)(C)C)cc2NC(=O)Nc2ccc(OCCN3CCOCC3)c3ccccc23)cc1 [doramapimod]
Method in brief: as §1

ispinesib = compound: Cc1ccc(C(=O)N(CCCN)[C@@H](c2nc3cc(Cl)ccc3c(=O)n2Cc2ccccc2)C(C)C)cc1 [ispinesib]
Method in brief: as §1

bafetinib = compound: Cc1ccc(NC(=O)c2ccc(CN3CC[C@H](N(C)C)C3)c(C(F)(F)F)c2)cc1Nc1nccc(-c2cncnc2)n1 [bafetinib]
Method in brief: as §1

[5] = compound: Cc1cccc(CC(=O)N2CCc3c2ccc(-c2cn(C)c4ncnc(N)c24)c3F)n1
Method in brief: as §1

nilotinib = compound: Cc1cn(-c2cc(NC(=O)c3ccc(C)c(Nc4nccc(-c5cccnc5)n4)c3)cc(C(F)(F)F)c2)cn1 [nilotinib]
Method in brief: as §1

[6] = compound: Cc1nc(Nc2n[nH]c3c2CN(C(=O)N[C@H](CN(C)C)c2ccccc2)C3(C)C)c2sccc2n1
Method in brief: as §1

dasatinib = compound: Cc1nc(Nc2ncc(C(=O)Nc3c(C)cccc3Cl)s2)cc(N2CCN(CCO)CC2)n1 [dasatinib]
Method in brief: as §1

[7] = compound: Cc1ncc(-c2ccnc(Nc3ccc(S(C)(=O)=O)cc3)n2)n1C(C)C
Method in brief: as §1

[8] = compound: Cn1cc(-c2ccc3c(c2)CCN3C(=O)Cc2cccc(C(F)(F)F)c2)c2c(N)ncnc21
Method in brief: as §1

[9] = compound: Cn1cc(-c2ccc3nnc(C(F)(F)c4ccc5ncccc5c4)n3n2)cn1
Method in brief: as §1

tipifarnib = compound: Cn1cncc1[C@@](N)(c1ccc(Cl)cc1)c1ccc2c(c1)c(-c1cccc(Cl)c1)cc(=O)n2C [tipifarnib]
Method in brief: as §1

mubritinib = compound: FC(F)(F)c1ccc(/C=C/c2nc(COc3ccc(CCCCn4ccnn4)cc3)co2)cc1 [mubritinib]
Method in brief: as §1

Measured: log2 fold change

CACYBP (UniProt Q9HB71)
inactive: [1] 0.034 | crizotinib 0.008 | [2] 0.042 | [3] -0.06 | duvelisib 0.009 | gandotinib -0.078 | tozasertib 0.002 | [4] 0.01 | doramapimod -0.035 | ispinesib 0.062 | bafetinib -0.039 | [5] 0.015 | nilotinib -0.029 | [6] -0.017 | dasatinib -0.014 | [7] -0.003 | [8] 0.02 | [9] 0.002 | tipifarnib 0.021 | mubritinib 0.037

BUD23 isoform 3 (UniProt O43709)
inactive: [1] -0.002 | crizotinib -0.002 | [2] -0.021 | [3] 0.176 | duvelisib 0.028 | gandotinib -0.043 | tozasertib -0.036 | [4] 0.044 | doramapimod 0.062 | ispinesib -0.046 | bafetinib 0.111 | [5] 0.014 | nilotinib -0.027 | [6] 0.07 | dasatinib 0.013 | [7] 0.055 | [8] -0.008 | [9] -0.03 | tipifarnib 0.017 | mubritinib 0.009

CAPN2 (UniProt P17655)
inactive: [1] 0.023 | crizotinib -0.07 | [2] 0.015 | [3] -0.023 | duvelisib 0.045 | gandotinib -0.053 | tozasertib -0.059 | [4] -0.046 | doramapimod 0.007 | ispinesib 0.018 | bafetinib -0.03 | [5] 0.002 | nilotinib 0.043 | [6] -0.024 | dasatinib -0.021 | [7] -0.045 | [8] 0.097 | [9] 0.02 | tipifarnib 0.005 | mubritinib 0.037

CANX isoform 2 (UniProt P27824)
inactive: [1] 0.02 | crizotinib 0.029 | [2] -0.081 | [3] 0.129 | duvelisib -0.075 | gandotinib 0.098 | tozasertib 0.008 | [4] 0.005 | doramapimod 0.003 | ispinesib -0.036 | bafetinib -0.035 | [5] -0.029 | nilotinib 0.041 | [6] 0.032 | dasatinib 0.05 | [7] -0.025 | [8] -0.086 | [9] -0.011 | tipifarnib 0.074 | mubritinib -0.06

CAPRIN1 (UniProt Q14444)
inactive: [1] -0.12 | crizotinib -0.048 | [2] -0.322 | [3] 0.169 | duvelisib -0.097 | gandotinib 0.13 | tozasertib 0.015 | [4] -0.034 | doramapimod 0.056 | ispinesib -0.128 | bafetinib 0.165 | [5] -0.073 | nilotinib 0.032 | [6] 0.158 | dasatinib 0.174 | [7] 0.024 | [8] -0.13 | [9] -0.142 | tipifarnib 0.052 | mubritinib -0.018

Taken from the entries so far (2 entries):
CANX isoform 2 (UniProt P27824)
inactive: [1] 0.02 | crizotinib 0.029 | [2] -0.081 | [3] 0.129 | duvelisib -0.075 | gandotinib 0.098 | tozasertib 0.008 | [4] 0.005 | doramapimod 0.003 | ispinesib -0.036 | bafetinib -0.035 | [5] -0.029 | nilotinib 0.041 | [6] 0.032 | dasatinib 0.05 | [7] -0.025 | [8] -0.086 | [9] -0.011 | tipifarnib 0.074 | mubritinib -0.06

CAPRIN1 (UniProt Q14444)
inactive: [1] -0.12 | crizotinib -0.048 | [2] -0.322 | [3] 0.169 | duvelisib -0.097 | gandotinib 0.13 | tozasertib 0.015 | [4] -0.034 | doramapimod 0.056 | ispinesib -0.128 | bafetinib 0.165 | [5] -0.073 | nilotinib 0.032 | [6] 0.158 | dasatinib 0.174 | [7] 0.024 | [8] -0.13 | [9] -0.142 | tipifarnib 0.052 | mubritinib -0.018

More results.

C17orf75 (UniProt Q9HAS0)
inactive: [1] 0.065 | crizotinib -0.007 | [2] -0.05 | [3] -0.025 | duvelisib 0.008 | gandotinib 0.074 | tozasertib 0.072 | [4] -0.014 | doramapimod 0.049 | ispinesib -0.047 | bafetinib -0.005 | [5] 0.009 | nilotinib -0.125 | [6] -0.073 | dasatinib -0.015 | [7] -0.045 | [8] 0.003 | [9] -0.02 | tipifarnib -0.015 | mubritinib 0.096

CAPZA1 (UniProt P52907)
inactive: [1] 0 | crizotinib 0.025 | [2] 0.064 | [3] -0.057 | duvelisib 0.03 | gandotinib 0.022 | tozasertib 0.022 | [4] 0.037 | doramapimod -0.019 | ispinesib 0.053 | bafetinib -0.013 | [5] -0.013 | nilotinib 0.014 | [6] 0.009 | dasatinib -0.024 | [7] 0.005 | [8] 0.07 | [9] -0.028 | tipifarnib -0.047 | mubritinib -0.007

C15orf40 (UniProt Q8WUR7)
inactive: [1] 0.094 | crizotinib 0.128 | [2] 0.034 | [3] 0.096 | duvelisib 0.007 | gandotinib -0.138 | tozasertib -0.073 | [4] -0.034 | doramapimod -0.03 | ispinesib 0.026 | bafetinib 0.057 | [5] 0.012 | nilotinib 0.037 | [6] 0.036 | dasatinib 0.013 | [7] 0.015 | [8] -0.036 | [9] -0.015 | tipifarnib -0.008 | mubritinib 0.038

C1orf122 (UniProt Q6ZSJ8)
inactive: [1] 0.037 | crizotinib 0.109 | [2] 0.013 | [3] -0.286 | duvelisib 0.179 | gandotinib -0.001 | tozasertib -0.005 | [4] -0.088 | doramapimod -0.012 | ispinesib 0.082 | bafetinib -0.065 | [5] -0.143 | nilotinib -0.022 | [6] -0.048 | dasatinib 0.031 | [7] 0 | [8] -0.009 | [9] 0.02 | tipifarnib 0.089 | mubritinib 0.088

C1orf174 (UniProt Q8IYL3)
inactive: [1] 0 | crizotinib 0.128 | [2] -0.27 | [3] 0.037 | duvelisib 0.008 | gandotinib 0.119 | tozasertib -0.05 | [4] -0.118 | doramapimod -0.043 | ispinesib -0.08 | bafetinib 0.023 | [5] -0.115 | nilotinib 0.079 | [6] 0.032 | dasatinib 0.047 | [7] -0.01 | [8] -0.076 | [9] -0.017 | tipifarnib 0.029 | mubritinib -0.033

CALM2 (UniProt P0DP24)
inactive: [1] 0.001 | crizotinib 0.006 | [2] 0.001 | [3] -0.086 | duvelisib 0.139 | gandotinib -0.002 | tozasertib -0.017 | [4] -0.068 | doramapimod -0.031 | ispinesib 0.048 | bafetinib -0.025 | [5] 0.042 | nilotinib 0.033 | [6] 0.017 | dasatinib 0.031 | [7] 0 | [8] 0.018 | [9] -0.025 | tipifarnib -0.022 | mubritinib 0.015

CAPZA2 (UniProt P47755)
inactive: [1] -0.026 | crizotinib -0.017 | [2] 0.075 | [3] -0.025 | duvelisib 0.008 | gandotinib -0.043 | tozasertib 0.045 | [4] 0.033 | doramapimod -0.038 | ispinesib 0.025 | bafetinib -0.03 | [5] 0.027 | nilotinib 0.025 | [6] -0.014 | dasatinib -0.012 | [7] -0.002 | [8] 0.016 | [9] -0.004 | tipifarnib -0.063 | mubritinib 0.033

CAPN7 (UniProt Q9Y6W3)
inactive: [1] 0.017 | crizotinib -0.091 | [2] 0.031 | [3] -0.006 | duvelisib 0.021 | gandotinib -0.021 | tozasertib -0.01 | [4] 0.044 | doramapimod 0.006 | ispinesib -0.055 | bafetinib -0.005 | [5] 0.028 | nilotinib -0.049 | [6] -0.103 | dasatinib -0.137 | [7] -0.002 | [8] 0.048 | [9] 0.011 | tipifarnib -0.131 | mubritinib 0.073

C1GALT1C1 (UniProt Q96EU7)
inactive: [1] 0.016 | crizotinib -0.146 | [2] 0.028 | [3] -0.007 | duvelisib 0.04 | gandotinib -0.099 | tozasertib -0.027 | [4] -0.077 | doramapimod 0.05 | ispinesib 0.017 | bafetinib 0.005 | [5] 0.019 | nilotinib 0.056 | [6] -0.067 | dasatinib 0.017 | [7] -0.09 | [8] 0.036 | [9] -0.048 | tipifarnib 0.017 | mubritinib 0.034

BUB3 (UniProt O43684)
inactive: [1] 0.008 | crizotinib 0.034 | [2] -0.004 | [3] -0.013 | duvelisib 0.032 | gandotinib 0.016 | tozasertib -0.01 | [4] -0.012 | doramapimod -0.003 | ispinesib 0.012 | bafetinib -0.019 | [5] -0.025 | nilotinib -0.012 | [6] 0.006 | dasatinib 0.023 | [7] 0.003 | [8] 0.005 | [9] -0.009 | tipifarnib -0.034 | mubritinib 0.013

C11orf98 (UniProt E9PRG8)
inactive: [1] -0.065 | crizotinib 0 | [2] -0.475 | [3] 0.434 | duvelisib -0.203 | gandotinib 0.295 | tozasertib 0.017 | [4] -0.045 | doramapimod 0.127 | ispinesib -0.081 | bafetinib 0.18 | [5] -0.014 | nilotinib 0.021 | [6] 0.087 | dasatinib 0.172 | [7] -0.017 | [8] -0.244 | [9] -0.1 | tipifarnib 0.124 | mubritinib -0.114
